Some of the results follow.
biological target: OsWRKY34 (Oryza sativa, UniProt Q0JBA9 1-250); experiment: protein-binding microarray (RPBM); PBS, 2% BSA, 51.3 ng/ul salmon testes DNA, 50 uM zinc acetate, 200 nM TF, 25 C, 1 h; high values mean tight binding; conditions: protein: recombinant; tags: N-terminal polyhistidine and DsRed monomer fusion (pET32a); label: CyDye5-dUTP incorporated in the synthesized complementary strand; 3' TTTTT single-stranded linker to array surface; dsDNA, one strand shown
Outline: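 Using Ni–NTA, transcription factors fused N-terminally to polyhistidine and DsRed were purified after expression in E. coli BL21-CodonPlus. These were incubated at 200 nM with a blocked, double-stranded custom Agilent array for 1 h at 25 °C in a buffer containing 50 µM zinc acetate, and the array was washed. The binding signal is per-feature fluorescence intensity (arbitrary units) on an Axon 4000B scanner.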

The chains behind the UniProt entries cited, without tags or fusion partners.
UniProt Q0JBA9, entry or part of it: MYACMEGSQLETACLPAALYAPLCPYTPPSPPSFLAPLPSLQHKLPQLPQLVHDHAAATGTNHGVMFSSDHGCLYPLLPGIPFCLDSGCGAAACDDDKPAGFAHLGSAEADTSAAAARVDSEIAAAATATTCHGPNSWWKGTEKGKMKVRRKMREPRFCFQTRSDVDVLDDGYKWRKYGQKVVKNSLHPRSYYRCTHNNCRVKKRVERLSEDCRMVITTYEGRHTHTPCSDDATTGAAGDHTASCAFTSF

Question: For “TATTCCCACGATGTTGTCACTCTTCCTCGCGCGTCCACAGCGGAGTCACCTAGTGCAG”, which binding signal is on record?
Answer: 8190 fluorescence intensity (a.u.)

Question: With “CGTTGCGCACGTACAGCTCACGCTCAAGTCGTACACATTACGGAGTCACCTAGTGCAG” as the sequence, how does the binding signal read?
Answer: 9380 fluorescence intensity (a.u.)

Question: Which binding signal does the source give for “GATGGAACTCCTTTTGTAACTTTCCAACTACGAGTACGAGCGGAGTCACCTAGTGCAG” here?
Answer: 8480 fluorescence intensity (a.u.)

Question: With “TATTTGATTTATATATAATGAAACATCGTCAGTTATTTTTCGGAGTCACCTAGTGCAG” as the sequence, how does the binding signal read?
Answer: 8060 fluorescence intensity (a.u.)

Question: How did the binding signal turn out when “TTGCTTTGTGGGAATTGGGGAGTTTTTTGTGATACGGTGGCGGAGTCACCTAGTGCAG” was run?
Answer: 10300 fluorescence intensity (a.u.)

Question: With “CTGCTCCGCCGACCACCGTCAGGTCGCGACGCCGCCGATGCGGAGTCACCTAGTGCAG” as the sequence, how does the binding signal read?
Answer: 8410 fluorescence intensity (a.u.)

Question: “TTCTTCTTCTTCCTCCTCCTTCGCCGCCGCCCACCGCGCCCGGAGTCACCTAGTGCAG” was tested. Which binding signal did it give?
Answer: 8990 fluorescence intensity (a.u.)

Question: With “CTCTCGGCGTTCTCAGCTGCAGCCGCCGGCGGCGAACCCGCGGAGTCACCTAGTGCAG” as the sequence, how does the binding signal read?
Answer: 11700 fluorescence intensity (a.u.)

Question: How did the binding signal turn out when “TTTTTAAAAAAAAAATTGGTAGGACCCGTCCATCTCTTCTCGGAGTCACCTAGTGCAG” was run?
Answer: 8210 fluorescence intensity (a.u.)

Question: With “GGGTCTGAGAGGGGAGGAGAGGTGTCGCTATCGGAGAAGACGGAGTCACCTAGTGCAG” as the sequence, how does the binding signal read?
Answer: 8710 fluorescence intensity (a.u.)

Question: With “TAGTGTGTACTCTTCCCTTTGGCACGTACTAGTCGATTACCGGAGTCACCTAGTGCAG” as the sequence, how does the binding signal read?
Answer: 13000 fluorescence intensity (a.u.)

Question: Which binding signal does the source give for “TACTAGTCCACACATAAGCATTATTATCTTTTGTTAAATACGGAGTCACCTAGTGCAG” here?
Answer: 9200 fluorescence intensity (a.u.)

Question: With “ACTGCACCACCAATCTACTCCTATTGTGCTTACTGGTTCCCGGAGTCACCTAGTGCAG” as the sequence, how does the binding signal read?
Answer: 9780 fluorescence intensity (a.u.)

Question: “AGTAGTTGATGAAGATTTGCCGAAAGTGCAGGGGTATTTCCGGAGTCACCTAGTGCAG” was tested. Which binding signal did it give?
Answer: 8120 fluorescence intensity (a.u.)

Question: How did the binding signal turn out when “CGGCCGAACAGGGGAGAGGAGGGGAGGGGATCCTGGTGAGCGGAGTCACCTAGTGCAG” was run?
Answer: 9220 fluorescence intensity (a.u.)

Question: How did the binding signal turn out when “ACAGGGTAAGTACTTCTGTTAAAGTCTTTCTTTTTTTTCCCGGAGTCACCTAGTGCAG” was run?
Answer: 8980 fluorescence intensity (a.u.)

Question: With “GGCCGTAATTTTTTCTTTTTTTTTGACTATAGTGTCTCGACGGAGTCACCTAGTGCAG” as the sequence, how does the binding signal read?
Answer: 9130 fluorescence intensity (a.u.)

Question: Which binding signal does the source give for “CCTATACTACTAGTAGTAGCTTGCCCCTGCGCTTGCTTGTCGGAGTCACCTAGTGCAG” here?
Answer: 8210 fluorescence intensity (a.u.)

Question: Which binding signal does the source give for “CTCCTCGCTAGTTCGCCCGCCGCGCCGCCTGCGTCGATTTCGGAGTCACCTAGTGCAG” here?
Answer: 8080 fluorescence intensity (a.u.)

Question: For “GCTTCAATGATTTCTGATTCTGTTGCTTCTCCCTCCTTCCCGGAGTCACCTAGTGCAG”, which binding signal is on record?
Answer: 8560 fluorescence intensity (a.u.)

Question: “CGTCGTCGCTAGGGGAGGCGGTGGCGCGAGGGGAGGGAAGCGGAGTCACCTAGTGCAG” was tested. Which binding signal did it give?
Answer: 9730 fluorescence intensity (a.u.)

Question: How did the binding signal turn out when “GCCATGCAAACATGCGGCCCACTCCTCTTCGCCGCATGCCCGGAGTCACCTAGTGCAG” was run?
Answer: 10800 fluorescence intensity (a.u.)

Question: How did the binding signal turn out when “ATAACCGTCCACACCCCGCTCCTGCTCCCGCCACGCCATTCGGAGTCACCTAGTGCAG” was run?
Answer: 9100 fluorescence intensity (a.u.)

Question: How did the binding signal turn out when “TCTGGTGCTATAAATACCCACGAACTCTTCACTCAACATTCGGAGTCACCTAGTGCAG” was run?
Answer: 8500 fluorescence intensity (a.u.)

Question: Which binding signal does the source give for “CACGCGGCTCTCCACCACCACCACTACCCGCGGAATCGGACGGAGTCACCTAGTGCAG” here?
Answer: 8670 fluorescence intensity (a.u.)

Question: How did the binding signal turn out when “GCTAGCGCTGGAATGGTCCTACTTCTTTCATTTACAACATCGGAGTCACCTAGTGCAG” was run?
Answer: 8690 fluorescence intensity (a.u.)

Question: With “CTCCGATTTCAAGAGAGTACACCGTTGACTGGAACTCGTACGGAGTCACCTAGTGCAG” as the sequence, how does the binding signal read?
Answer: 9980 fluorescence intensity (a.u.)

Question: Which binding signal does the source give for “TTGTGTCTTATGACTTATATTTTTATATTTGCACTAATTTCGGAGTCACCTAGTGCAG” here?
Answer: 8900 fluorescence intensity (a.u.)

Question: Which binding signal does the source give for “GGGGTATTCGTACTTTTTCCTTAATGTAGTAATGTGAAACCGGAGTCACCTAGTGCAG” here?
Answer: 8500 fluorescence intensity (a.u.)

Question: How did the binding signal turn out when “AGTATAGATTGCCCGTGAGATTTTTACTGAGTTCCATTCCCGGAGTCACCTAGTGCAG” was run?
Answer: 8290 fluorescence intensity (a.u.)

Question: Which binding signal does the source give for “CTTGACGAGGAGGCCCGGGAGGGAGGGGTGCGGCGCGGTGCGGAGTCACCTAGTGCAG” here?
Answer: 8220 fluorescence intensity (a.u.)

Question: “AATGGAATGGACAGTTGCTTGTTTTGGTAGTGCGAACTCACGGAGTCACCTAGTGCAG” was tested. Which binding signal did it give?
Answer: 8820 fluorescence intensity (a.u.)

Question: How did the binding signal turn out when “AGTATTGTTTTCTCGCTGTCTCTATCCAAATCTTTGAAAACGGAGTCACCTAGTGCAG” was run?
Answer: 17200 fluorescence intensity (a.u.)

Question: How did the binding signal turn out when “TTCTTCTCGTTCAATTTCTCTTCCTCTACATTCTACGTCCCGGAGTCACCTAGTGCAG” was run?
Answer: 8310 fluorescence intensity (a.u.)

Question: How did the binding signal turn out when “GCCTTGTCTCATTCTCCGTTCTCCTCTCCGCCCACCCACCCGGAGTCACCTAGTGCAG” was run?
Answer: 8030 fluorescence intensity (a.u.)

Question: How did the binding signal turn out when “TACATACTCCCCGTAGGCTCACACTCCCAATCTCTACTTGCGGAGTCACCTAGTGCAG” was run?
Answer: 8650 fluorescence intensity (a.u.)

Question: How did the binding signal turn out when “CAGAAGTCCATGCTCCACCGGTAGCTCCATCACCATCTGTCGGAGTCACCTAGTGCAG” was run?
Answer: 8650 fluorescence intensity (a.u.)

Question: How did the binding signal turn out when “ACATCCATTTTTTTTAAATTTTCCTTTTATTTTTCACTGCCGGAGTCACCTAGTGCAG” was run?
Answer: 9050 fluorescence intensity (a.u.)

Question: How did the binding signal turn out when “GTACTACGTAGATCCCTATTCCGACGTAACCCAATACTCTCGGAGTCACCTAGTGCAG” was run?
Answer: 8280 fluorescence intensity (a.u.)

Question: For “TGGGGTGGGTGCCCGGAGCTTTGATGCGCGTGGCCGCCGGCGGAGTCACCTAGTGCAG”, which binding signal is on record?
Answer: 12400 fluorescence intensity (a.u.)

Question: Which binding signal does the source give for “AAATCCTTTCGAAATTTCACTTGTAATCTACTTTTGTCCCCGGAGTCACCTAGTGCAG” here?
Answer: 8770 fluorescence intensity (a.u.)

Question: For “AGGGAATGATACTACCTTTTCAGCCACTCACCATGACGTTCGGAGTCACCTAGTGCAG”, which binding signal is on record?
Answer: 9070 fluorescence intensity (a.u.)
